Test results: PMC12041575
No constants are given. Whether binding was seen depends on the method and setting. Binding seen in cells or lysates may run through a third protein. Here binding means that the protein was enriched with, or labelled near, the bait; the list need not be complete.

Protein sequences, listed by entry. Tags and fused reporters are not part of them.
UniProt Q9NR30: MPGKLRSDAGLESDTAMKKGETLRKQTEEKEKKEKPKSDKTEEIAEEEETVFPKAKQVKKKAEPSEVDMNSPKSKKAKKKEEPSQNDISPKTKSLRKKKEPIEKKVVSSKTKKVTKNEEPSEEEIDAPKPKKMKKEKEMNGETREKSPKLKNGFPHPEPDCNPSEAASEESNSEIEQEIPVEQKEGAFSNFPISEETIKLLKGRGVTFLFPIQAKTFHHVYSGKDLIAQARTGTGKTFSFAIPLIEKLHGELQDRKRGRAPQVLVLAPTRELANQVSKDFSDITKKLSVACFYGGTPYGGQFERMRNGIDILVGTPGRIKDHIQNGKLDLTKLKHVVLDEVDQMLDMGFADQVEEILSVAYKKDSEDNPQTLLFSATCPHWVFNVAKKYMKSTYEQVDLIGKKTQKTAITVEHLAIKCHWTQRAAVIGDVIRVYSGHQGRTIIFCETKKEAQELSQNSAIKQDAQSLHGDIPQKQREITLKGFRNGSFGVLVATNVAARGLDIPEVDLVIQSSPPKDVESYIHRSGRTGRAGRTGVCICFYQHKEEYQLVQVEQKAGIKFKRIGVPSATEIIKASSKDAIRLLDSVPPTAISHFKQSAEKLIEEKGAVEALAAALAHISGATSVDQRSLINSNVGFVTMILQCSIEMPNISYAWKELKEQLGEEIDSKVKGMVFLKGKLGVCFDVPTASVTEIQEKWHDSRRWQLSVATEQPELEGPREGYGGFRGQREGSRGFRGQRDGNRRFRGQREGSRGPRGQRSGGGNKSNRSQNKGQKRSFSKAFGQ
UniProt Q92769: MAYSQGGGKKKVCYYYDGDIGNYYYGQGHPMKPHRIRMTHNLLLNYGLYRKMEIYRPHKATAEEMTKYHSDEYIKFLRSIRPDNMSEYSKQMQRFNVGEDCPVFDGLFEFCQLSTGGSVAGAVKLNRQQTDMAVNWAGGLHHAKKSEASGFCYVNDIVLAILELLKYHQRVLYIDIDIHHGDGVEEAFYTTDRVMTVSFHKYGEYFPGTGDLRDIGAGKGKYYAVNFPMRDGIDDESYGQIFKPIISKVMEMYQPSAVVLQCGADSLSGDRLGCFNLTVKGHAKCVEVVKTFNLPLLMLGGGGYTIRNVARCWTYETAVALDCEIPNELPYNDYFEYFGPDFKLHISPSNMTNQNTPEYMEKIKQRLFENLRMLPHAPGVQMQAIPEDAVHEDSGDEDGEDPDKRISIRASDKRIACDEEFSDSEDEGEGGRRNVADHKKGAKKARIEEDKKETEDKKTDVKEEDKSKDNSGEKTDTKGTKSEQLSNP
UniProt Q9NRC8: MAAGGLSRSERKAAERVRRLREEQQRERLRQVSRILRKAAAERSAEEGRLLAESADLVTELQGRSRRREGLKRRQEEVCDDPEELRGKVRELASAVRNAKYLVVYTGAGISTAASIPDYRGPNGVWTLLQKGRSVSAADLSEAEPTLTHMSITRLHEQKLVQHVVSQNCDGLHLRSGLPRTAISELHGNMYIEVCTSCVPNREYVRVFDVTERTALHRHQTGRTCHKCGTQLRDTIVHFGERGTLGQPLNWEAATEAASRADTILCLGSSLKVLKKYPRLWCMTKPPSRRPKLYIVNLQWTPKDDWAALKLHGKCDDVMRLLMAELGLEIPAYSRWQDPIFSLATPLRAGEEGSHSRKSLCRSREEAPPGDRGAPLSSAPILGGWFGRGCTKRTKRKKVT

Target: DExD-box helicase 21 (DDX21) (human (endogenous in HCT116)) (UniProt Q9NR30)
Assay: affinity purification with mass spectrometry; Co-IP of DDX21 in HCT116 cells; enriched proteins separated and analysed by mass spectrometry (Co-IP/MS)

Substance | binding
HDAC2 (from UniProt Q92769 1-488) | binds
sirtuin 7 (SIRT7) (from UniProt Q9NRC8 1-400) | binds
